Results published in doi:10.1101/2025.02.04.636487.

Protein sequences, listed by entry. Tags and fused reporters are not part of them.
UniProt Q9NYF8: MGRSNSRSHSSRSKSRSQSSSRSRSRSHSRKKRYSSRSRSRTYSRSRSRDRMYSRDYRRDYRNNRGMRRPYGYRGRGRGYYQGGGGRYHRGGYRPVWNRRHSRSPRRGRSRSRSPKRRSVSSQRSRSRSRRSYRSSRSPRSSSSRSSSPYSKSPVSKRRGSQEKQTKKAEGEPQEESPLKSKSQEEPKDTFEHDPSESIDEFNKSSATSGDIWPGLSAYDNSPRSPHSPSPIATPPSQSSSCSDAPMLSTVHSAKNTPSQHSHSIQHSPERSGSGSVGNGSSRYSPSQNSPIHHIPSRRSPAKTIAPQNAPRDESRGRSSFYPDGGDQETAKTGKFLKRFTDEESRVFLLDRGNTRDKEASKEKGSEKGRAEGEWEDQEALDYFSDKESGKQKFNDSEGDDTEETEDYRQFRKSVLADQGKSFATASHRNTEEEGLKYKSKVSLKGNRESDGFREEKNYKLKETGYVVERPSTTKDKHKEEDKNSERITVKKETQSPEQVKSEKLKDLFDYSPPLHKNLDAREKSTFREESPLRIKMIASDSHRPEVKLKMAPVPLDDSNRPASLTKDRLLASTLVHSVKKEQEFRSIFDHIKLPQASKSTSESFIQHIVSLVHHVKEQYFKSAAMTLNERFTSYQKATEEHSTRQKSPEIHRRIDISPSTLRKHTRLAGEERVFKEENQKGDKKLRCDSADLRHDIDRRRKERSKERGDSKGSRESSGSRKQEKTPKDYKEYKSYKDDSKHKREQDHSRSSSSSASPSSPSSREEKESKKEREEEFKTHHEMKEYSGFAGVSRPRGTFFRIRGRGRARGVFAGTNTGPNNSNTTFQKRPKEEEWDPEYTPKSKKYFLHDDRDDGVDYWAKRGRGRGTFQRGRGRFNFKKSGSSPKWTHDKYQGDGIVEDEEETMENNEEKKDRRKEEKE

Molecular target: T1, Flag-FERM-PTK2 (FERM domain of Protein Tyrosine Kinase 2) (UniProt Q05397)
T1 sequence: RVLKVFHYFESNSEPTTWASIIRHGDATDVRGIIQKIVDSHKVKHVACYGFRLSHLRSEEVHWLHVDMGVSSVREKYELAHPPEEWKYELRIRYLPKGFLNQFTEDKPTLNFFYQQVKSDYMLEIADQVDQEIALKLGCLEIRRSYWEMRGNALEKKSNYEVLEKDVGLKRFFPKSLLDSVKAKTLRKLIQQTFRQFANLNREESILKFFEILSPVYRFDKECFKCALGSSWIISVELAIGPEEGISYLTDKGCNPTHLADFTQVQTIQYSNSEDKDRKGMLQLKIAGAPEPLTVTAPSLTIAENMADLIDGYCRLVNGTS
Assay: affinity purification with mass spectrometry

For “Bcl-2-associated transcription factor 1 (Bclaf1), endogenous in HEK-293T cells (from UniProt Q9NYF8 1-920)”, the binding was “binds”.

These are yes or no findings as the source states them, for the method shown. In cells and extracts the contact can be indirect. A yes stands for co-enrichment or nearness to the bait. Other partners may have been found. Where a sequence is shown, tags or fusion partners need not be part of it.
